Measured values taken from publication PMC10958042.
These are yes or no findings as the source states them, for the method shown. Some results given as binding are weak or reduced against the parent protein; the word gives no strength. Sequences can lack the tags named with a protein.

Experiments:
[1] = biological target: T1, Adipose triglyceride lipase (ATGL), full-length human, wild type, yeast two-hybrid fusion (human), Q96AD5; test: two-hybrid; Y2H assay system, wild-type full-length human ATGL against wild-type partners; settings: remark: other sources report otherwise
T1 chain: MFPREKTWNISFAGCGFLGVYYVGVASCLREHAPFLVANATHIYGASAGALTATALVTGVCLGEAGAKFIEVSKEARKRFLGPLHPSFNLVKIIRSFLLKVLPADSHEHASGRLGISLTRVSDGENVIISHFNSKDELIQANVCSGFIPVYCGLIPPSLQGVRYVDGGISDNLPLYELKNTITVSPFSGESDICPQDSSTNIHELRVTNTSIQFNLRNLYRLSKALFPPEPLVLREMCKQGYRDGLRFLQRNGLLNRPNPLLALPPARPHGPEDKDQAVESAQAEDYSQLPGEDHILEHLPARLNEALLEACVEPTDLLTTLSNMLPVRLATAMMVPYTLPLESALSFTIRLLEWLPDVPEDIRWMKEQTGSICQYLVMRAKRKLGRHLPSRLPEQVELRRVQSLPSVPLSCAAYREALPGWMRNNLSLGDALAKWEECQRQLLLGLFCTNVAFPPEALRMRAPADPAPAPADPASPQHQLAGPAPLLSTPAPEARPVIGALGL

[2] = biological target: T2, Adipose triglyceride lipase (ATGL), full-length human, wild type, yeast two-hybrid fusion (human) (UniProt Q96AD5); test: as above
T2 sequence: T1 chain

B1: CGI-58, wild type, yeast two-hybrid fusion, Q8WTS1 1-349 (protein)
chain: MAAEEEEVDSADTGERSGWLTGWLPTWCPTSISHLKEAEEKMLKCVPCTYKKEPVRISNGNKIWTLKFSHNISNKTPLVLLHGFGGGLGLWALNFGDLCTNRPVYAFDLLGFGRSSRPRFDSDAEEVENQFVESIEEWRCALGLDKMILLGHNLGGFLAAAYSLKYPSRVNHLILVEPWGFPERPDLADQDRPIPVWIRALGAALTPFNPLAGLRIAGPFGLSLVQRLRPDFKRKYSSMFEDDTVTEYIYHCNVQTPSGETAFKNMTIPYGWAKRPMLQRIGKMHPDIPVSVIFGARSCIDGNSGTSIQSLRPHSYVKTIAILGAGHYVYADQPEEFNQKVKEICDTVD
For B1, which binding [1] is on record?
Its binding is “binds”.

B2: G0S2 (G0/G1 switch gene 2), wild type, yeast two-hybrid fusion (protein, UniProt P27469 1-103)
chain: METVQELIPLAKEMMAQKRKGKMVKLYVLGSVLALFGVVLGLMETVCSPFTAARRLRDQEAAVAELQAALERQALQKQALQEKGKQQDTVLGGRALSNRQHAS
Which binding [2] does the source give for B2 here?
The binding was “binds”.

B3: CIDEC (cell death-inducing DFFA-like effector c), wild type, yeast two-hybrid fusion (protein, UniProt Q96AQ7 1-238)
chain: MEYAMKSLSLLYPKSLSRHVSVRTSVVTQQLLSEPSPKAPRARPCRVSTADRSVRKGIMAYSLEDLLLKVRDTLMLADKPFFLVLEEDGTTVETEEYFQALAGDTVFMVLQKGQKWQPPSEQGTRHPLSLSHKPAKKIDVARVTFDLYKLNPQDFIGCLNVKATFYDTYSLSYDLHCCGAKRIMKEAFRWALFSMQATGHVLLGTSCYLQQLLDATEEGQPPKGKASSLIPTCLKILQ
B3 was tested. Which binding [2] did it give?
The binding was “binds”.
